These are yes or no findings as the source states them, for the method shown. Binding seen in cells or lysates may run through a third protein. A yes stands for co-enrichment or nearness to the bait. Other partners may have been found.
Tests used:
[1] = target: GST-SEMG1 (truncated SEMG1 lacking the signal peptide, 23-461 a.a.) (human) (UniProt P04279); assay: affinity purification with mass spectrometry; 50 µg GST-SEMG1 or GST-SEMG2 (GST as control) incubated 3 h with MCF7 cell extract pre-incubated with GST; eluted in Laemmli buffer, SDS-PAGE, LC-MS/MS; only the target purified
[2] = target: GST-SEMG2 (truncated SEMG2 lacking the signal peptide, 23-562 a.a.) (human) (UniProt Q02383); assay: as above

By UniProt entry, the sequences of proteins in these tests, tags left out. Where a name states a change or a piece, a line headed by the entry shows the natural chain unless it says otherwise. Residues count along the entry.
UniProt P04279, residues 23-461: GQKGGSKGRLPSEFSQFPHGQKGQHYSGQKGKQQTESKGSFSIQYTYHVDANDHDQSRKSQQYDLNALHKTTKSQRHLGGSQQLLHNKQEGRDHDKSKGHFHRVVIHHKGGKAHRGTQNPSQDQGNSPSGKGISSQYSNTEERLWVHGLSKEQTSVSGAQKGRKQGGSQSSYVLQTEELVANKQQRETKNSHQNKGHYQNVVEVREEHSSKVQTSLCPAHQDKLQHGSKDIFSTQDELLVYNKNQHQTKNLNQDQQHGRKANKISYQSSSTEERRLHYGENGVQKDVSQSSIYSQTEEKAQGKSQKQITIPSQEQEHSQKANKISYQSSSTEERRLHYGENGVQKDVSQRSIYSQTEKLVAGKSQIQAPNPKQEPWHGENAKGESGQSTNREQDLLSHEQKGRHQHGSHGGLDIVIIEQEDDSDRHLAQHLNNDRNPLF
UniProt Q02383: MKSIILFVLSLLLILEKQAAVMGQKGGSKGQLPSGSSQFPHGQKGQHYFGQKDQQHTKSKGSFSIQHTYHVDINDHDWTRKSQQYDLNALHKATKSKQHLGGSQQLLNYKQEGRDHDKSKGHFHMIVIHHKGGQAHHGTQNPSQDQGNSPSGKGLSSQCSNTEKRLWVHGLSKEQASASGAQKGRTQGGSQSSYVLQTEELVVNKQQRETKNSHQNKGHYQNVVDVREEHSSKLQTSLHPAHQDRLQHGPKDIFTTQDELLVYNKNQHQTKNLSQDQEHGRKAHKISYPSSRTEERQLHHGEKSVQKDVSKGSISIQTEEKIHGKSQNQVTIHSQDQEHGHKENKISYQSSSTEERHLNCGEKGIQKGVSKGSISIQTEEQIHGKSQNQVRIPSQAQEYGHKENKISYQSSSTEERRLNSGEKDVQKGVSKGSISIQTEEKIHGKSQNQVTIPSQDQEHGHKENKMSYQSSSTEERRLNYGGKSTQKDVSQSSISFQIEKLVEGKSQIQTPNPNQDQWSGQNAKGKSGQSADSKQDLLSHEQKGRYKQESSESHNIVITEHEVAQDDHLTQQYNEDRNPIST

binding [1]: binds
binding [2]: binds
Substance: pyruvate kinase M2 (PKM2), endogenous in MCF7 cell extract (from UniProt P14618-1 1-531) (enzyme)
